Results are given in words; binding and its absence hold for the method and conditions named. Binding seen in cells or lysates may run through a third protein. Some entries that bind do so weakly or less than the wild type.

Sequences of proteins named here, by UniProt entry; tags and fusion partners are left off.
UniProt Q02248: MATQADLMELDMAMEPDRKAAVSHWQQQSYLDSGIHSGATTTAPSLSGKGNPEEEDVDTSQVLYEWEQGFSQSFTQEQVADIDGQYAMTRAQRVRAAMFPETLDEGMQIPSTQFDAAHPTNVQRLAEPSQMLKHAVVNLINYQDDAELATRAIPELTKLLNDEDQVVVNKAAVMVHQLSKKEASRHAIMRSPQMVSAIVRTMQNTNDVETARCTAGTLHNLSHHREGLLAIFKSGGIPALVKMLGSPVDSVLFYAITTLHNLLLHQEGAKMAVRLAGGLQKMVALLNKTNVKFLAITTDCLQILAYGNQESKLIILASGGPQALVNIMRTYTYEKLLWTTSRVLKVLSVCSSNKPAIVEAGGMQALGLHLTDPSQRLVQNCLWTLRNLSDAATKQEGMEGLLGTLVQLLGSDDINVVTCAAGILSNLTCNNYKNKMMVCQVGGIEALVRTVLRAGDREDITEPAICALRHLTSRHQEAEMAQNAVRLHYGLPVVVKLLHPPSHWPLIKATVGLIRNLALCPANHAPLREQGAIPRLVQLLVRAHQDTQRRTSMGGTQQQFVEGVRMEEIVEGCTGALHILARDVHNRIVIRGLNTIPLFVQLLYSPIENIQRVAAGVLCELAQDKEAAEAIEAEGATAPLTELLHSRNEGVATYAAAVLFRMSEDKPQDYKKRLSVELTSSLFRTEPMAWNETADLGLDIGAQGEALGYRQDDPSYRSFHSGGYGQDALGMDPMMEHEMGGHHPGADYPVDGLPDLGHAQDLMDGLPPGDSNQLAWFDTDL

The target of assay [1] is T1, retinoic acid receptor gamma (mouse (endogenous in EpiSCs)) (UniProt P18911).
T1 sequence: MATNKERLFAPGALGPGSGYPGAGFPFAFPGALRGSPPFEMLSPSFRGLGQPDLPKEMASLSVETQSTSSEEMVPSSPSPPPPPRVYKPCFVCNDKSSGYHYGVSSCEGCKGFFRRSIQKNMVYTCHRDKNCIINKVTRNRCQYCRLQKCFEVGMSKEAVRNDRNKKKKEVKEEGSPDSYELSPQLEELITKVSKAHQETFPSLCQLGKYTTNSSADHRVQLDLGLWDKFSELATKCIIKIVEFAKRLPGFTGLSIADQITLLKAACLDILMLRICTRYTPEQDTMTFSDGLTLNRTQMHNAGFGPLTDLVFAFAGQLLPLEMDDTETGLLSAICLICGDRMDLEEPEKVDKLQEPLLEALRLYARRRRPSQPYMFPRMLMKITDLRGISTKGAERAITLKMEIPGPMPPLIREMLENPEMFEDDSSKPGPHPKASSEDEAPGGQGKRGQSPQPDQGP
The assay is described as follows: co-IP; nuclear extract (200 µg) of EpiSCs cultured in N2B27 without VA, without CD437; anti-RARG antibody at 4°C overnight, Protein G magnetic beads; blot for β-catenin.

Assay [2] has as its target T1, retinoic acid receptor gamma (mouse (endogenous in EpiSCs)). The assay is described as follows: co-IP; nuclear extract (200 µg) of EpiSCs cultured in N2B27 without VA, with the RARG agonist CD437 (5.0 nM) and CH (3.0 µM) for 24 hours; anti-RARG antibody at 4°C overnight, Protein G magnetic beads; blot for β-catenin.

With β-catenin (from UniProt Q02248 1-781), the binding entry in assay [1] was “binds weakly”; in assay [2], “binds”.

The values are drawn from PMC4863141.
